The source of these data is publication PMC7807703.

Sequences of proteins named here, by UniProt entry; tags and fusion partners are left off. Residues count along the entry.
UniProt Q9BXM7, residues 78-581: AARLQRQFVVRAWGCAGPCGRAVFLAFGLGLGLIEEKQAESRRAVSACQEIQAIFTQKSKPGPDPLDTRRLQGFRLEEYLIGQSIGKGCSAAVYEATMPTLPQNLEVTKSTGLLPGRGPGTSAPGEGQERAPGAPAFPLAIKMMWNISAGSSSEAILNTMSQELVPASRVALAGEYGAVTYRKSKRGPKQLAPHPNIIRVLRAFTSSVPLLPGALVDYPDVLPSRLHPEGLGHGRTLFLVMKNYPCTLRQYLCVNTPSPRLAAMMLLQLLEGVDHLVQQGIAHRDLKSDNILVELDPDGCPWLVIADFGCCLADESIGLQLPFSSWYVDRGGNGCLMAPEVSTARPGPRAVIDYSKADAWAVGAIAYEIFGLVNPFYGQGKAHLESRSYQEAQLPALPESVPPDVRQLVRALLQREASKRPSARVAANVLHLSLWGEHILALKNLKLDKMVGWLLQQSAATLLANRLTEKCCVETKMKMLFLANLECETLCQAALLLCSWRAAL

Results are given in words; binding and its absence hold for the method and conditions named. Binding seen in cells or lysates may run through a third protein. Here binding means that the protein was enriched with, or labelled near, the bait; the list need not be complete. Sequences can lack the tags named with a protein.

The assay addresses T1, STOML2-Flag (Stomatin-like protein 2 with a Flag tag) (human) (UniProt Q9UJZ1).
T1 sequence: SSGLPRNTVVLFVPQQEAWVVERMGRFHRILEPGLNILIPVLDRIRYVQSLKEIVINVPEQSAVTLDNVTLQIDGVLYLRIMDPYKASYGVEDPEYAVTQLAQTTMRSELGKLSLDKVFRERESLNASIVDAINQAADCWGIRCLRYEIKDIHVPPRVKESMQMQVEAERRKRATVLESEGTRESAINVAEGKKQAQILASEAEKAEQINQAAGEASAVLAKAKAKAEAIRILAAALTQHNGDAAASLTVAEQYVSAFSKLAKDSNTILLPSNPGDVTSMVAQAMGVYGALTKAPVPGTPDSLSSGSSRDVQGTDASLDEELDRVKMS
In words: affinity purification with mass spectrometry; SMMC-7721 cells transfected with STOML2-Flag (control: pENTER), treated with CCCP (10 uM), lysed in RIPA buffer; Flag antibody and protein A/G agarose beads; SDS-PAGE, silver stain, specific bands analysed by MALDI TOF.

With “PTEN-induced putative kinase 1 (PINK1) (from UniProt Q9BXM7 78-581)”, the binding entry is recorded as “binds”.
